Data on 1 molecule can be found in publication PMC4885069.

For the assay, the target named is hSV2C 455–579 peptide (released from GST-hSV2C 455–579 by thrombin) (human) (UniProt Q496J9). Kind of assay: SEC; both purified.

Results are given in words; binding and its absence hold for the method and conditions named. Sequences can lack the tags named with a protein.

B1: hSV2C 455–579 peptide (released from GST-hSV2C 455–579 by thrombin) (domain or fragment, UniProt Q496J9 455-579)
chain: PDVIKPLQSDEYALLTRNVERDKYANFTINFTMENQIHTGMEYDNGRFIGVKFKSVTFKDSVFKSCTFEDVTSVNTYFKNCTFIDTVFDNTDFEPYKFIDSEFKNCSFFHNKTGCQITFDDDYSA
In the case of B1, the binding result was “no binding”.
